Measurements taken from US6649628B1, “N-[2-hydroxy-3-(1-piperidinyl)propoxy]pyridine-1-oxide-3-carboximidoyl chloride and its use in the treatment of insulin resistance” (Biorex Kutato es Fejleszto RT, priority 1999, dated 2003).

System: high fat (HF) diet insulin resistant male Wistar rats
Experiment: Experiment 8: in vivo insulin-dependent glucose uptake (euglycaemic glucose clamp) in dietary induced insulin resistance
Details: 20 mg/kg daily, 3 weeks

SMILES | effect on body weight | effect on food consumption
O=C(O)/C=C\C(=O)O.[O-][n+]1cccc(C(Cl)=NOC[C@H](O)CN2CCCCC2)c1 [A(+), (+)-/R/-N-[2-hydroxy-3-(1-piperidinyl)-propoxy]-pyridine-1-oxide-3-carboximidoyl chloride (Z)-2-butenedioate (1:1)] | did not affect | did not affect
O=C(O)/C=C\C(=O)O.[O-][n+]1cccc(C(Cl)=NOC[C@@H](O)CN2CCCCC2)c1 [A(−), (−)-/S/-N-[2-hydroxy-3-(1-piperidinyl)-propoxy]-pyridine-1-oxide-3-carboximidoyl chloride (Z)-2-butenedioate (1:1)] | did not affect | did not affect
